Laboratory results published in paper PMC3460625.
Results are given in words; binding and its absence hold for the method and conditions named. Binding seen in cells or lysates may run through a third protein. Some results given as binding are weak or reduced against the parent protein; the word gives no strength. Sequences can lack the tags named with a protein.

The chains behind the UniProt entries cited, without tags or fusion partners.
UniProt P03519: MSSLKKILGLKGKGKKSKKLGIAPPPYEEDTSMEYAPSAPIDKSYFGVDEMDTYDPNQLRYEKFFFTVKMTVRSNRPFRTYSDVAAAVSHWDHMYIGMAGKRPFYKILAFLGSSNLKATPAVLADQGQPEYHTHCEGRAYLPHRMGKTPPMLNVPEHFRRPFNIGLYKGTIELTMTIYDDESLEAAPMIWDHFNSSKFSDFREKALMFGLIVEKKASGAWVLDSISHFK

Target: T1, hemagglutinin (HA) epitope tagged Rae1 (UniProt P78406)
T1 sequence: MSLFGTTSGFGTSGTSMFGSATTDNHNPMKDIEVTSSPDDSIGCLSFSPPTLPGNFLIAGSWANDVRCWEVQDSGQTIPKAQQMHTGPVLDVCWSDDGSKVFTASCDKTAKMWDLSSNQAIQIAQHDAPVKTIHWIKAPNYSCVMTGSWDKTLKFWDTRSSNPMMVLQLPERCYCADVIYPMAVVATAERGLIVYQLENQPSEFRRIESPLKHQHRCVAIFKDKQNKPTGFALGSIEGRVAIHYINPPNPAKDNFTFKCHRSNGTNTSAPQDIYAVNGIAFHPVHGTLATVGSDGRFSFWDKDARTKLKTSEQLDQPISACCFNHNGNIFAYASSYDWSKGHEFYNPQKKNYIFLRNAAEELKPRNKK
Experiment: co-IP

Q: With “M protein of recombinant wild-type VSV (rwt virus) in infected cells (from UniProt P03519 1-229)” as the substance, how does the binding read?
A: binds
